Consider one compound from US11980937B1 (KING FAISAL UNIVERSITY, priority 2023, dated 2024).

Structures are written as SMILES.

Common to all, as to type: cell-based
The subject of one test is PC3 (prostate). Briefly: In vitro cytotoxic activity MTT assay, PC3. To be noted: Homo sapiens, PC-3; PC3 cells, exposed for 96 hours; read-out: IC50, 50% inhibition of cell proliferation, PC3 (prostate). As to the method:
(§1) Compounds 1-16 were screened for their in vitro cytotoxic activity utilizing a 3-(4,5-dimethyl-thiazol-2-yl)-2,5-diphenyltetrazolium bromide (MTT) assay against selected cancer human cell lines consisting of PC3 (prostate), HCT116 (colon), A375 (melanoma), H1299 (lung), MIAPaCa-2 (pancreas), HL60 (leukemia), MCF7 (breast), MDA-MB-231 (breast) (T. Mosmann, J. Immunol. Meth., 1983, 65, 55-63). The cells were cultured at 37° C. in RMPI1640 medium supplemented with 10% fetal bovine serum, 50 IU/mL penicillin, and 50 μg/mL streptomycin in a 5% CO2 incubator. All cells were sub-cultured 3 times/week by trypsinisation. Viable cells were seeded and allowed to adhere for 12 hours before a test drug was added in 96-well plates at an initial density of 1.0×10^5 cells/mL. Tumor cell lines were separately exposed to various concentrations of the tested compounds followed by incubation at a temperature of 37° C. during 96 hours inside a medium of fresh RMPI 1640. Cells were subsequently incubated at 37° C. using MTT at 0.5 mg/mL during 4 hours. After removal of supernatant, formazan crystals were dissolved in isopropanol and the optical density was measured at 570 nm. CX-4945 was used as a positive control.

In a further test the test system is HCT116 (colon). The experiment in a line: In vitro cytotoxic activity MTT assay, HCT116. To be noted: Homo sapiens, HCT-116; HCT116 cells, exposed for 96 hours; read-out: IC50, 50% inhibition of cell proliferation, HCT116 (colon). As for the experimental part:
as §1

The next test concerns A375 (melanoma). The experiment in a line: In vitro cytotoxic activity MTT assay, A375. To be noted: Homo sapiens, A-375; A375 cells, exposed for 96 hours; read-out: IC50, 50% inhibition of cell proliferation, A375 (melanoma). As for the experimental part:
as §1

A further test relates to H1299 (lung). Briefly: In vitro cytotoxic activity MTT assay, H1299. To be noted: Homo sapiens, NCI-H1299; H1299 cells, exposed for 96 hours; read-out: IC50, 50% inhibition of cell proliferation, H1299 (lung). As to the method:
as §1

In another test the test system is MIAPaCa-2 (pancreas). The experiment in a line: In vitro cytotoxic activity MTT assay, MIAPaCa-2. To be noted: Homo sapiens, MIA PaCa-2; MIAPaCa-2 cells, exposed for 96 hours; read-out: IC50, 50% inhibition of cell proliferation, MIAPaCa-2 (pancreas). As to the method:
as §1

Another test has as its system HL60 (leukemia). The experiment in a line: In vitro cytotoxic activity MTT assay, HL60. To be noted: Homo sapiens, HL-60; HL60 cells, exposed for 96 hours; read-out: IC50, 50% inhibition of cell proliferation, HL60 (leukemia). As to the method: as §1
In another test the test system is MCF7 (breast). The experiment in a line: In vitro cytotoxic activity MTT assay, MCF7. To be noted: Homo sapiens; MCF7 cells, exposed for 96 hours; read-out: IC50, 50% inhibition of cell proliferation, MCF7 (breast). As to the method:
as §1

Another test concerns MDA-MB-231 (breast). The experiment in a line: In vitro cytotoxic activity MTT assay, MDA-MB-231. To be noted: Homo sapiens; MDA-MB-231 cells, exposed for 96 hours; read-out: IC50, 50% inhibition of cell proliferation, MDA-MB-231 (breast). As to the method:
as §1

With `O=C(O)c1ccc2c(c1)nc(Nc1cccc(Cl)c1)c1ccncc12` [CX-4945], the IC50 with PC3 (prostate) was found to be 2 µM; in the test with HCT116 (colon), 2.3 µM; with A375 (melanoma), 4.1 µM; with H1299 (lung) it was 2.3 µM; in the test on MIAPaCa-2 (pancreas) it was 1 µM; with HL60 (leukemia) it was 3.7 µM. Besides, the IC50 in the test with MCF7 (breast) amounted to 9.1 µM; in the test with MDA-MB-231 (breast), 6.2 µM.
